This is an account of results in the supplement of paper PMC6411743.

Chains of the proteins cited; added tags and fusions are not shown. Lines headed by an entry give the natural chain unless they say otherwise; changes in a name come on top.
UniProt Q5TEU4: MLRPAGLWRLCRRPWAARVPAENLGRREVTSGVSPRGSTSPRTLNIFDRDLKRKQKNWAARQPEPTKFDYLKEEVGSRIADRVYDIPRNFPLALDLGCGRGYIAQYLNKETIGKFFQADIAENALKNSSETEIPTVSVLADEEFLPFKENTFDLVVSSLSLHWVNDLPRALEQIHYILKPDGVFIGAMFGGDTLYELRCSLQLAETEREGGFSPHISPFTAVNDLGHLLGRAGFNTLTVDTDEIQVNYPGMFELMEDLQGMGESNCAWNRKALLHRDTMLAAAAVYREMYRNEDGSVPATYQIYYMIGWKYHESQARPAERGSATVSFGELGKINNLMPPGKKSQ
UniProt P46020: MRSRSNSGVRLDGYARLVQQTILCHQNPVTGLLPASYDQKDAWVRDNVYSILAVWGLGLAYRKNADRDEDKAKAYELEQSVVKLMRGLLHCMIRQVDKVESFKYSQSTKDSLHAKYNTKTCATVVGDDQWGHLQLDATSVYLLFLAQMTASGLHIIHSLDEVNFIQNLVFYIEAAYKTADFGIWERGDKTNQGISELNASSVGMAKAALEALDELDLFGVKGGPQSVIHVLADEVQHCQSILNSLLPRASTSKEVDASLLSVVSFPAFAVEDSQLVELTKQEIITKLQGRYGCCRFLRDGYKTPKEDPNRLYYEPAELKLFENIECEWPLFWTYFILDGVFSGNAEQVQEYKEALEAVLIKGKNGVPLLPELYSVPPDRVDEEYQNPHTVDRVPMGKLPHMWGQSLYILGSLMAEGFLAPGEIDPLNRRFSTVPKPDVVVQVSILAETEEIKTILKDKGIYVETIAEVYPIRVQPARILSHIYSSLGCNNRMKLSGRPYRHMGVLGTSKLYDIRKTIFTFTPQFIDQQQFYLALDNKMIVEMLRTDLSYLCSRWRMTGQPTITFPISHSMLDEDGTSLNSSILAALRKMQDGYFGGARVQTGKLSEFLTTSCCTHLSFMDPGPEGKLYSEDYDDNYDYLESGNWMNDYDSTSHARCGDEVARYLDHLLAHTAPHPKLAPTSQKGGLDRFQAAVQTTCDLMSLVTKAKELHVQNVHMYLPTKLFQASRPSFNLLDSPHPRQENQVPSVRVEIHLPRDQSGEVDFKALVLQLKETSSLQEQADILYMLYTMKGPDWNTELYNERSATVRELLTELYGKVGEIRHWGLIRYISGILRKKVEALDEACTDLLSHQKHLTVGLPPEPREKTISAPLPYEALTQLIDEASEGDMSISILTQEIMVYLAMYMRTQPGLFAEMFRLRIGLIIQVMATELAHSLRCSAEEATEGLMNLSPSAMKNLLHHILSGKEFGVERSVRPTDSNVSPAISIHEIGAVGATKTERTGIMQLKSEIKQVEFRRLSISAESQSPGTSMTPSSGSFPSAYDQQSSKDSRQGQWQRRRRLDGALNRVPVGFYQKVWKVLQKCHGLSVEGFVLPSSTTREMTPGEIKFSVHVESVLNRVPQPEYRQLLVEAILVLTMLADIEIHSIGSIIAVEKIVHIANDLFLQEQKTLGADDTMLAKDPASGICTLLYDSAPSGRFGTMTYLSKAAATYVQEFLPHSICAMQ
UniProt Q32M88: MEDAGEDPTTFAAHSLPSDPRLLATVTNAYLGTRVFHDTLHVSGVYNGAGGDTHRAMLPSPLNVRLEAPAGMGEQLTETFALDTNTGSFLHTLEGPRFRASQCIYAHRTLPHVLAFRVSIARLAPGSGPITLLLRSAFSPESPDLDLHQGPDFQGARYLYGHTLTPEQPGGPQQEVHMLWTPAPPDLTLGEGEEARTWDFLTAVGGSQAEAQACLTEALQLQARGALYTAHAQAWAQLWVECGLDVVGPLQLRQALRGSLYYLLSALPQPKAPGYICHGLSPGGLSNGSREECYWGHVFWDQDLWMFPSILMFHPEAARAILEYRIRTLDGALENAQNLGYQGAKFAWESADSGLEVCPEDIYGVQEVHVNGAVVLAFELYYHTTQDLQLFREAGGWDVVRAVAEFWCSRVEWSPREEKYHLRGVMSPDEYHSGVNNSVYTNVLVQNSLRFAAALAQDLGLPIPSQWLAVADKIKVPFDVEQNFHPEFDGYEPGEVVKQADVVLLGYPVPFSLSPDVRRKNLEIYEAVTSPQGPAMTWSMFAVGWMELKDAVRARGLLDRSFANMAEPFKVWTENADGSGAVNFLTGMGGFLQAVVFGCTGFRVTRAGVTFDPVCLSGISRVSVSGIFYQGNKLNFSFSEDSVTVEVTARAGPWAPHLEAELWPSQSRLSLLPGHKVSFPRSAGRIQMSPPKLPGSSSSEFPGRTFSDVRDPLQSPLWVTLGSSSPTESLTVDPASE
UniProt P06748, whole entry: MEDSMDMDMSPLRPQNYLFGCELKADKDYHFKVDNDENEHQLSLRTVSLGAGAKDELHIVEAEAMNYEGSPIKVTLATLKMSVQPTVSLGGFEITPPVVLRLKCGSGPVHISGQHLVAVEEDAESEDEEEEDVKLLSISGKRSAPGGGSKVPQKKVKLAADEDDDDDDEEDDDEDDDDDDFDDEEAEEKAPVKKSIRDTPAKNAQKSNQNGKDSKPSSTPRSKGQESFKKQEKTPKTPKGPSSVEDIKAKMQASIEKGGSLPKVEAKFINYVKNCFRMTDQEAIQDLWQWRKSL
UniProt Q8NA72: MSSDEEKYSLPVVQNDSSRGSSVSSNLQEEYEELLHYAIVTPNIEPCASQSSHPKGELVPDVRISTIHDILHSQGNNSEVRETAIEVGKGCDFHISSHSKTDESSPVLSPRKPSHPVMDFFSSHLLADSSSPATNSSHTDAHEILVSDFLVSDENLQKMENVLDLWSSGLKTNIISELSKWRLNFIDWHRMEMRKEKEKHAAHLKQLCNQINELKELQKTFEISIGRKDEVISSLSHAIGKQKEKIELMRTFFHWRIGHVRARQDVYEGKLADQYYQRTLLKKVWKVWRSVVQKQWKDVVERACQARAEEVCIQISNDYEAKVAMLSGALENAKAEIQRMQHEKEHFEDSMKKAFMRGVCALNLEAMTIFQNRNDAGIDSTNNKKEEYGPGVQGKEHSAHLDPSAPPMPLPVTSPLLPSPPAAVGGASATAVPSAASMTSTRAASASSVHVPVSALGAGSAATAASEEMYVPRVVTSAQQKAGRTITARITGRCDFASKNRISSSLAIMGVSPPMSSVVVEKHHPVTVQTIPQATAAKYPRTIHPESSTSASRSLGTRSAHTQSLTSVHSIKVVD
UniProt P63165, whole entry: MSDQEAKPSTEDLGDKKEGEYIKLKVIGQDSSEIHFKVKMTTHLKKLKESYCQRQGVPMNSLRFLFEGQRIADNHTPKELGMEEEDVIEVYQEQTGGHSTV
UniProt Q6UXN9, whole entry: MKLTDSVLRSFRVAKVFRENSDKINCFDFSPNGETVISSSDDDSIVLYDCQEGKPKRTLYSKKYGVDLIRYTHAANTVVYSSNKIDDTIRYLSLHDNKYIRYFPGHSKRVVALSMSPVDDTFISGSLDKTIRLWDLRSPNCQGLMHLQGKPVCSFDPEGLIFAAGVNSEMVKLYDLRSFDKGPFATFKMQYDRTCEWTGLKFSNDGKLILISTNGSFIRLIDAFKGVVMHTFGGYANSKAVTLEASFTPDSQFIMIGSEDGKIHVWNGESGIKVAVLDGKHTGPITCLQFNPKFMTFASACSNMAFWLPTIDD
UniProt Q99829: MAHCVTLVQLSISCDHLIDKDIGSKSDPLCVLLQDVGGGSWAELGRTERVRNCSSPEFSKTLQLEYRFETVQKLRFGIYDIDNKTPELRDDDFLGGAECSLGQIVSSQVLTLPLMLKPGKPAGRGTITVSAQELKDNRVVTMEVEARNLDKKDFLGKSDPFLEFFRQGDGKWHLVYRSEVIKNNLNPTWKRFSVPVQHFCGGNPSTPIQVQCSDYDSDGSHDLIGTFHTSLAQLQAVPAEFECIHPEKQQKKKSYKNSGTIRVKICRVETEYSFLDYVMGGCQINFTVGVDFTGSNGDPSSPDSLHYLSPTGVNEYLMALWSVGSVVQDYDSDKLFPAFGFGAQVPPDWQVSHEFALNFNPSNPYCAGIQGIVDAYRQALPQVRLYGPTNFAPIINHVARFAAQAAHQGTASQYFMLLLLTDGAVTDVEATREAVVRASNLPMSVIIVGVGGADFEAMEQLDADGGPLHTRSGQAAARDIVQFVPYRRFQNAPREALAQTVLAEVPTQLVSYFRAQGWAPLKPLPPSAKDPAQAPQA
UniProt P61619, whole entry: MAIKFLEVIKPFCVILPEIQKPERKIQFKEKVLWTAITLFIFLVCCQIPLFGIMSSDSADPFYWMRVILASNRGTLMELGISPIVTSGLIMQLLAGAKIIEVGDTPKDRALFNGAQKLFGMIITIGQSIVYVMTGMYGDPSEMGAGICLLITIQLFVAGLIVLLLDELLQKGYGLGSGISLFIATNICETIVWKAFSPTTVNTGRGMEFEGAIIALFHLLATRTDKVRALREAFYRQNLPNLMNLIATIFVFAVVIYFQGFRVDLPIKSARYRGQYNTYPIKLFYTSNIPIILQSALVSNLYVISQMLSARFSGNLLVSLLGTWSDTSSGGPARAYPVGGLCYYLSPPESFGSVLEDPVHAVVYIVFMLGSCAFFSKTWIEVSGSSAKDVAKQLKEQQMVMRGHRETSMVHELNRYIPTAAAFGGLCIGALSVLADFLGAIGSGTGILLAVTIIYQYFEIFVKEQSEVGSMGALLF
UniProt P62304, whole entry: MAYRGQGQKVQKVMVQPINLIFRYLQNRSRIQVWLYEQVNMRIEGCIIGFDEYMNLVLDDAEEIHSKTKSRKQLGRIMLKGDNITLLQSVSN

± gives the standard deviation of the averaged measurements. This is one part of the list.

Compound in this experiment: Nc1nc2c(ncn2[C@@H]2O[C@H](COP(=O)(O)OP(=O)(O)OP(=O)(O)O)[C@@H](O)[C@H]2O)c(=O)[nH]1 [guanosine triphosphate]
Kind of experiment: NP40-soluble protein abundance relative to vehicle (solubility fold change) (ratio); higher = more soluble protein in presence of GTP. In a few lines: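 Each value is a fold change relative to the detergent-processed vehicle, calculated per replicate from vsn-normalised intensities. Jurkat crude lysate received eight concentrations (0.1 to 10 mM) for 10 min at room temperature and 3 min at 37 °C, then was solubilised in 0.8% NP40 with benzonase (60 min, 4 °C). The ultracentrifuged supernatant was TMT-labelled and run by LC-MS/MS in three independent experiments.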

For “B4DV51 and related entries (UniProt P62826)”, the NP40-soluble protein abundance (concentration: 0.1mM) was 0.9924 ± 0.002; the NP40-soluble protein abundance (concentration: 0.5mM) is 1 ± 0.03; the NP40-soluble protein abundance (concentration: 1mM) worked out at 0.934 ± 0.025; the NP40-soluble protein abundance (concentration: 2mM) worked out at 0.894 ± 0.05; the NP40-soluble protein abundance (concentration: 4mM) came to 0.886 ± 0.035; the NP40-soluble protein abundance (concentration: 6mM) was 0.885 ± 0.06. Further, the NP40-soluble protein abundance runs as follows: (concentration: 8mM) 0.879 ± 0.051; (concentration: 10mM) 0.839 ± 0.081.

With “B3KR61 and related entries (UniProt Q5TEU4)”, the NP40-soluble protein abundance was found to be 0.868 ± 0.081 (concentration: 0.1mM); 0.957 ± 0.18 (concentration: 0.5mM); 0.919 ± 0.052 (concentration: 1mM); 0.896 ± 0.14 (concentration: 2mM); 0.9 ± 0.094 (concentration: 4mM); 0.877 ± 0.12 (concentration: 6mM). The NP40-soluble protein abundance is, setting by setting: (concentration: 8mM) 0.869 ± 0.062; (concentration: 10mM) 0.837 ± 0.14.

As for “B8ZZU8 and related entries (UniProt Q15370)”, the NP40-soluble protein abundance by setting is: (concentration: 0.1mM) 0.892 ± 0.023; (concentration: 0.5mM) 0.888 ± 0.029; (concentration: 1mM) 0.954 ± 0.028; (concentration: 2mM) 0.915 ± 0.06; (concentration: 4mM) 0.921 ± 0.075; (concentration: 6mM) 0.92 ± 0.042. Besides, the NP40-soluble protein abundance reads like this: (concentration: 8mM) 0.878 ± 0.09; (concentration: 10mM) 0.916 ± 0.037.

For “A6NMN0 and related entries (UniProt P46020)”, the NP40-soluble protein abundance is, setting by setting: (concentration: 0.1mM) 1.04 ± 0.061; (concentration: 0.5mM) 1.03 ± 0.038; (concentration: 1mM) 1.07 ± 0.048; (concentration: 2mM) 1.07 ± 0.043; (concentration: 4mM) 1.1 ± 0.068; (concentration: 6mM) 1.1 ± 0.057. The NP40-soluble protein abundance reads like this: (concentration: 8mM) 1.16 ± 0.12; (concentration: 10mM) 1.05 ± 0.14.

“E7EMA9 and related entries (UniProt Q32M88)”: the NP40-soluble protein abundance (concentration: 0.1mM) was 1.15 ± 0.044; the NP40-soluble protein abundance (concentration: 0.5mM) was 1.05 ± 0.17; the NP40-soluble protein abundance (concentration: 1mM) is 1.06 ± 0.23; the NP40-soluble protein abundance (concentration: 2mM) is 1.12 ± 0.04; the NP40-soluble protein abundance (concentration: 4mM) was 0.986 ± 0.24; the NP40-soluble protein abundance (concentration: 6mM) was determined as 0.972 ± 0.06. The NP40-soluble protein abundance runs as follows: (concentration: 8mM) 0.972 ± 0.16; (concentration: 10mM) 0.897 ± 0.039.

In the case of “E5RGW4 and related entries (UniProt P06748)”, the NP40-soluble protein abundance is, setting by setting: (concentration: 0.1mM) 0.926 ± 0.018; (concentration: 0.5mM) 0.926 ± 0.061; (concentration: 1mM) 1.08 ± 0.02; (concentration: 2mM) 1.02 ± 0.079; (concentration: 4mM) 1.08 ± 0.047; (concentration: 6mM) 1.13 ± 0.062. Also, the NP40-soluble protein abundance (concentration: 8mM) turned out to be 1.17 ± 0.072 and the NP40-soluble protein abundance (concentration: 10mM) came to 1.22 ± 0.13.

Regarding “D6RDG4 and related entries (UniProt Q8NA72)”, the NP40-soluble protein abundance runs as follows: (concentration: 0.1mM) 0.974 ± 0.054; (concentration: 0.5mM) 0.96 ± 0.046; (concentration: 1mM) 1.045 ± 0.007; (concentration: 2mM) 0.9759 ± 0.00021; (concentration: 4mM) 0.95 ± 0.048; (concentration: 6mM) 1.014 ± 0.0089. For the same target, the NP40-soluble protein abundance was 0.981 ± 0.017 (concentration: 8mM) and 0.9663 ± 0.0092 (concentration: 10mM).

For the target “B8ZZN6 and related entries (UniProt P63165)”, the NP40-soluble protein abundance stood at 0.891 ± 0.086 (concentration: 0.1mM); 0.85 ± 0.049 (concentration: 0.5mM); 1.02 ± 0.11 (concentration: 1mM); 1.02 ± 0.057 (concentration: 2mM); 0.985 ± 0.087 (concentration: 4mM); 1.03 ± 0.058 (concentration: 6mM). The NP40-soluble protein abundance amounted to 0.989 ± 0.091 (concentration: 8mM) and 1.08 ± 0.12 (concentration: 10mM).

As for “C9JJ19 and related entries (UniProt P82930)”, the NP40-soluble protein abundance was found to be 1.02 ± 0.021 (concentration: 0.1mM); 1.02 ± 0.13 (concentration: 0.5mM); 1.19 ± 0.14 (concentration: 1mM); 1.24 ± 0.23 (concentration: 2mM); 1.32 ± 0.33 (concentration: 4mM); 1.19 ± 0.24 (concentration: 6mM). Moreover, the NP40-soluble protein abundance is, setting by setting: (concentration: 8mM) 1.23 ± 0.23; (concentration: 10mM) 1.09 ± 0.17.

With “C9JBU3 and related entries (UniProt Q6UXN9)”, the NP40-soluble protein abundance reads like this: (concentration: 0.1mM) 1.08 ± 0.088; (concentration: 0.5mM) 1.09 ± 0.13; (concentration: 1mM) 0.934 ± 0.067; (concentration: 2mM) 1 ± 0.19; (concentration: 4mM) 0.968 ± 0.13; (concentration: 6mM) 0.952 ± 0.099. In addition, the NP40-soluble protein abundance came to 0.887 ± 0.0099 (concentration: 8mM) and 0.883 ± 0.1 (concentration: 10mM).

As for “B0QZ18 and related entries (UniProt Q99829)”, the NP40-soluble protein abundance by setting is: (concentration: 0.1mM) 0.995 ± 0.011; (concentration: 0.5mM) 0.9817 ± 0.0091; (concentration: 1mM) 0.896 ± 0.028; (concentration: 2mM) 0.906 ± 0.011; (concentration: 4mM) 0.858 ± 0.032; (concentration: 6mM) 0.876 ± 0.022. Moreover, the NP40-soluble protein abundance (concentration: 8mM) came out at 0.849 ± 0.06 and the NP40-soluble protein abundance (concentration: 10mM) amounted to 0.871 ± 0.058.

Regarding “B4DR61 and related entries (UniProt P61619)”, the NP40-soluble protein abundance reads like this: (concentration: 0.1mM) 1.12 ± 0.1; (concentration: 0.5mM) 1.07 ± 0.088; (concentration: 1mM) 0.974 ± 0.02; (concentration: 2mM) 1.01 ± 0.13; (concentration: 4mM) 1.01 ± 0.12; (concentration: 6mM) 1.02 ± 0.066. Also, the NP40-soluble protein abundance reads like this: (concentration: 8mM) 0.97 ± 0.023; (concentration: 10mM) 0.957 ± 0.1.

“A6NHK2 and related entries (UniProt P62304)”: the NP40-soluble protein abundance worked out at 1.02 ± 0.18 (concentration: 0.1mM); 0.993 ± 0.14 (concentration: 0.5mM); 0.968 ± 0.099 (concentration: 1mM); 1.04 ± 0.049 (concentration: 2mM); 1.19 ± 0.18 (concentration: 4mM); 1.09 ± 0.24 (concentration: 6mM). For the same target, the NP40-soluble protein abundance by setting is: (concentration: 8mM) 1.033 ± 0.0048; (concentration: 10mM) 1.094 ± 0.0081.
